Assay results: article PMC8813914, “The IGFBP3/TMEM219 pathway regulates beta cell homeostasis” (Nature Communications, 2022)
Results are given in words; binding and its absence hold for the method and conditions named. Binding seen in cells or lysates may run through a third protein. Some entries that bind do so weakly or less than the wild type.

Molecular target: T1, TMEM219 (death receptor), endogenous in human beta cells (human (endogenous in Blox-5)) (UniProt Q86XT9)
T1 sequence: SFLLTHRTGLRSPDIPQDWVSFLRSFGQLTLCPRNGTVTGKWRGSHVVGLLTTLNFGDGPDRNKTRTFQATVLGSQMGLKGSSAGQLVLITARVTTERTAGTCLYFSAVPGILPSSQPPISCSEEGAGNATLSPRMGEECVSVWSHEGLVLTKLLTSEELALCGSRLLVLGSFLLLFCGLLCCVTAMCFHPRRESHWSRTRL
Assay: co-IP; Blox-5 beta cells cultured with pooled T1D serum for 16 h, treated with the cross-linker DTSSP, lysed in NP-40 buffer (50 mM Tris pH 7.4, 250 mM NaCl, 5 mM EDTA); Dynabeads Protein G with polyclonal rabbit anti-TMEM219; blot with mouse anti-IGFBP3

Substance: serum IGFBP3 (of T1D patients' serum) (from UniProt P17936 28-291) (ligand)
- binding: binds
